Source: patent US8101572B2, “Methods for promoting wound healing and/or reducing scar formation” (Arizona Board of Regents, A Corporate Body Organized Under …, priority 2003, dated 2012)
For at least one compound, name, drawing or mass did not settle the structure.

Experiments:
Assay type in all cases: cell-based
[1] = test system: Swiss albino 3T3 cells; test: f-actin cytoskeletal distribution (Alexa 568 phalloidin, confocal microscopy); settings: 30 min, 10 μM LPA, 10 μM forskolin, 25 μM FITC-pHSP20, 25 μM FITC-aHSP20
Protocol: Unless otherwise stated, all reagents were purchased from Sigma, St. Louis, Mo. Swiss Albino 3T3 fibroblasts (ATCC, Manassas, Va.) were cultured in DMEM supplemented with 10% BCS, 4 mM L-glutamine and 50 μg/ml penicillin-streptomycin and maintained at 37° C., 5% CO2. Cells were seeded and cultured overnight. Culture media was replaced with DMEM containing 0.5% BCS 1 hour prior to experimentation. Cells were incubated with the peptide analogues or reagent (LPA or forskolin) diluted in DMEM containing 0.5% BCS, 30 minutes at 37° C. Cells were then fixed in 4% paraformnaldehyde, permeabilized in 0.25% Triton X-100, and blocked with 1% BSA solution for 1 hour. To determine f-actin cytoskeletal distribution, treated cells were incubated with Alexa 568 phalloidin (Molecular Probes, Eugene, Oreg.) in 1% BSA, 30 minutes. […] Slides were mounted and analyzed by confocal microscopy (Leica TCS SP2, Bannockburn, Ill.). […]
Swiss albino 3T3 cells were either untreated or treated with 10 μM LPA, 10 μM forskolin, 25 μM FITC-pHSP20, or 25 μM FITC-aHSP20 as described (4). Cells were fixed, stained for f-actin using Alexa 568 phalloidin, and visualized by projection images of confocal fluorescence microscopy. […]

[2] = test system: 3T3 cells; test: DNase 1 inhibition assay for monomer g-actin; settings: forskolin 10 μM, 30 min, pHSP20 25 μM, FIG. 1
Protocol: 3T3 cells were cultured and treated as indicated on the graph (4). Monomer g-actin was biochemically quantitated using a DNase 1 inhibition assay. The level of g-actin in the cell extract that caused 50% inhibition of DNase 1 was estimated from a standard actin curve that was determined using known amounts of actin. *P<0.05 compared to untreated cells.
To confirm that the loss of stress fibers is associated with loss of filamentous (f-) actin and commensurate increases in globular (g-) actin, a DNase 1 inhibition assay was performed (5). 3T3 cells were cultured and treated as indicated (4). Monomer g-actin was biochemically quantitated using a DNase 1 inhibition assay. The level of g-actin in the cell extract that caused 50% inhibition of DNase 1 was estimated from a standard actin curve that was determined using known amounts of actin. […] Thus, transduction of pHSP20 led to similar changes in actin filament dynamics and cellular morphology, as did activation of the upstream adenylate cyclase activator forskolin.

[3] = test system: Swiss albino 3T3 cells; test: focal adhesion protein localization (immunostaining for α-actinin, vinculin, paxillin); settings: 30 min, 10 μM forskolin, 25 μM pHSP20, 25 μM FITC-aHSP20
Protocol: Unless otherwise stated, all reagents were purchased from Sigma, St. Louis, Mo. Swiss Albino 3T3 fibroblasts (ATCC, Manassas, Va.) were cultured in DMEM supplemented with 10% BCS, 4 mM L-glutamine and 50 μg/ml penicillin-streptomycin and maintained at 37° C., 5% CO2. Cells were seeded and cultured overnight. Culture media was replaced with DMEM containing 0.5% BCS 1 hour prior to experimentation. Cells were incubated with the peptide analogues or reagent (LPA or forskolin) diluted in DMEM containing 0.5% BCS, 30 minutes at 37° C. Cells were then fixed in 4% paraformnaldehyde, permeabilized in 0.25% Triton X-100, and blocked with 1% BSA solution for 1 hour. To determine f-actin cytoskeletal distribution, treated cells were incubated with Alexa 568 phalloidin (Molecular Probes, Eugene, Oreg.) in 1% BSA, 30 minutes. To determine focal adhesion protein localization, treated cells were incubated with primary monoclonal antibodies for α-actinin (1:100, Upstate, Charlottesville, Va.), vinculin (1:100, Sigma) or paxillin (1:100, BD Bioscience-Transduction Labs, San Jose, Calif.) in 1% BSA solution for 2 hours, rinsed in PBS and incubated 60 min with Cy3-goat IgG secondary antibody (Jackson ImmunoResearch, West Grove, Pa.). Slides were mounted and analyzed by confocal microscopy (Leica TCS SP2, Bannockburn, Ill.). […]

How did the “cell morphology and stress fibers (f-actin)” value [1] turn out when `C=C[C@@]1(C)CC(=O)[C@]2(O)[C@@]3(C)[C@@H](O)CCC(C)(C)[C@@H]3[C@H](O)[C@H](OC(C)=O)[C@@]2(C)O1` [forskolin, reference compound] was run?
The value was “displayed stellate morphology and disrupted stress fibers”.

And the “g-actin (monomer) in cell extract” value [2]?
The value was “led to increases in g-actin”.

And the “focal adhesion accumulations of α-actinin, vinculin, and paxillin” value [3]?
The value was “displayed a decrease in focal adhesion accumulations of α-actinin, vinculin, and paxillin”.
